Experimental data published in patent publication US7371524B2, “Substituted azaporphyrins as fluorescence labels” (priority 2003, dated 2008).

Experiments:
Normal Human Serum = assay: Fluorescence intensity and polarization of free dye in normal human serum (nonspecific binding); settings: 25 μl whole serum added to 1 ml BBS
Description: (§1) The contrast between the dye structure of the present invention and those structures of previous attempts to use phthalocyanines (Pc's) as labels for fluorescence probes can be appreciated by a test format for NSB in which the free dye is added to serum and the resulting polarization or anisotropy is measured. An increase in polarization results if nonspecific binding occurs because the increase in molecular mass upon binding results in a decrease in the rate of rotary Brownian motion.
(§2) In Table 1 the performance of any one dye can be judged by the changes in fluorescence intensity (I), and/or the changes in polarization (mp, milli-polarization units) as one proceeds horizontally across the table. The “perfect” fluorescence label would have the same values for each of these parameters regardless of the solvent composition.
Comparison of the behavior in normal human serum to that in glycerol is informative since this provides a measure of the loss of potential polarization change by NSB in the presence of serum. For the five dyes listed the values of the differences between the polarization in glycerol and that in normal human serum are: 60.4, 73.6, 103, 12, 61 and 44.1. These differences show a dramatic beneficial effect of Si as a central atom and also point to LJB-3 as the best choice of the group. The ratio of intensities in glycerol divided by that in normal human serum also is indicative. […]
Abbreviations: mp: […]; TDx Buffer: Commercial buffer used in fluorescence polarization assays; Pc: phthalocyanine; BBS: Borate buffered saline (0.25 M NaCl, 0.0232 M boric acid and 0.00179 M sodium tetraborate. The pH is finally adjusted to 8.0+/−0.05 with 1M NaOH). […] Note that the relative concentrations of the various fluorophores is not known so that comparisons of fluorescence intensities are meaningful only when proceeding in a horizontal direction. […]
(§3) Fluorescence measurements: These were made in a transient state polarization fluorometer (FAST-1, Hyperion, Inc. Miami, Fla.)

Fetal Bovine Serum = assay: Fluorescence intensity and polarization of free dye in fetal bovine serum (nonspecific binding); settings: 25 μl whole serum added to 1 ml BBS
Description: as §1, §2
Abbreviations: mp: […]; TDx Buffer: Commercial buffer used in fluorescence polarization assays; Pc: phthalocyanine; BBS: Borate buffered saline (0.25 M NaCl, 0.0232 M boric acid and 0.00179 M sodium tetraborate. The pH is finally adjusted to 8.0+/−0.05 with 1M NaOH). When serum was tested, 25 μl of whole serum was added to 1 ml of BBS (containing 25 μl of the dye already added). Note that the relative concentrations of the various fluorophores is not known so that comparisons of fluorescence intensities are meaningful only when proceeding in a horizontal direction. An alternative to BBS for manipulating LJB-3 in aqueous solutions is borate buffered KCl (BBKCl) which is made by mixing 33.1 ml of 0.70 M boric acid, 4.0 ml of 0.50 M K2B4O7, 75 ml of 4.0 M KCl and water to make 1 liter: pH ca. 8.1.
as §3

Substance | Polarization (mp), Normal Human Serum (Normal Human Serum) [mp] | Fluorescence Intensity (I), Fetal Bovine Serum (Fetal Bovine Serum) | Polarization (mp), Fetal Bovine Serum (Fetal Bovine Serum) [mp]
Hydroxyaluminumphthalocyaninetrisulfonate [Al Pc trisulfonate, reference compound] | 224 | 533 | 60.7
dihydroxy dicarboxy silicon phthalocyanine sulfonate [LJB-3] | 95.7 | 716 | 38.7
DiphosphatoSidicarboxyphthalocyanine | 60.9 | 1020 | 64.9
